# Some of the results follow.
# B1: EUL D1A first (Oryza sativa) (protein)
# chain: MFGFGHHHNQAPAAPSDPNQIFKIFCRANENYCLTVRDSAVVLAPVNPKDEHQHWFKDMRFSTKVKDGEGMPAFALVNKATGLAVKHSLGQSHPVKLVPFNPEYEDASVLWTESKDVGKGFRCIRMVNNTRLNLDAFHGDKDHGGVRDGTTVVLWEWCKGDNQSWKILPWGPEAHSSSPGAATILEQKLISEEDLNSAVDHHHHHH
# Columns and labels:
# Assay in all cases: glycan array binding signal (z-score within array); higher = stronger binding
# Conditions in all cases: glycan notation: IUPAC condensed, linker removed
# [1] = target: Gal(b1-4)GlcNAc(b1-2)Man(a1-6)[Man(a1-3)]Man(b1-4)GlcNAc(b1-4)GlcNAc
# Procedure, shortened: (§1)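 Negative Z-scores can be read as non-binding. The Z-score is calculated within each array and then averaged across arrays of one protein sequence at different concentrations or buffers and across linkers. Arrays, 3228 in all, were curated from the Consortium for Functional Glycomics database and kept only where the protein sequence was available.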
# [2] = target: Gal(b1-4)GlcNAc(b1-2)[Gal(b1-4)GlcNAc(b1-4)]Man(a1-3)[Gal(b1-4)GlcNAc(b1-2)Man(a1-6)]Man(b1-4)GlcNAc(b1-4)GlcNAc
# Procedure, shortened: as §1
# [3] = target: Gal(b1-4)GlcNAc(b1-2)[Gal(b1-4)GlcNAc(b1-4)]Man(a1-3)[Gal(b1-4)GlcNAc(b1-2)[Gal(b1-4)GlcNAc(b1-6)]Man(a1-6)]Man(b1-4)GlcNAc(b1-4)GlcNAc
# Procedure, shortened: as §1
# [4] = target: Gal(b1-4)GlcNAc(b1-2)[Gal(b1-4)GlcNAc(b1-4)]Man(a1-3)[GlcNAc(b1-4)][Gal(b1-4)GlcNAc(b1-2)Man(a1-6)]Man(b1-4)GlcNAc(b1-4)GlcNAc
# Procedure, shortened: as §1
# [5] = target: Gal(b1-4)GlcNAc(b1-2)[Gal(b1-4)GlcNAc(b1-4)]Man(a1-3)[GlcNAc(b1-4)][Gal(b1-4)GlcNAc(b1-2)[Gal(b1-4)GlcNAc(b1-6)]Man(a1-6)]Man(b1-4)GlcNAc(b1-4)GlcNAc
# Procedure, shortened: as §1
# [6] = target: Gal(b1-4)GlcNAc(b1-2)[Gal(b1-4)GlcNAc(b1-6)]Man(a1-6)[Gal(b1-4)GlcNAc(b1-2)Man(a1-3)]Man(b1-4)GlcNAc(b1-4)GlcNAc
# Procedure, shortened: as §1
# [7] = target: Gal(b1-4)GlcNAc(b1-2)[Gal(b1-4)GlcNAc(b1-6)]Man(a1-6)[Gal(b1-4)GlcNAc(b1-2)Man(a1-3)]Man(b1-4)GlcNAc(b1-4)[Fuc(a1-6)]GlcNAc
# Procedure, shortened: as §1
# [8] = target: Gal(b1-4)GlcNAc(b1-2)[Gal(b1-4)GlcNAc(b1-6)]Man(a1-6)[GlcNAc(b1-4)][Gal(b1-4)GlcNAc(b1-2)Man(a1-3)]Man(b1-4)GlcNAc(b1-4)GlcNAc
# Procedure, shortened: as §1
# [9] = target: Gal(b1-4)GlcNAc(b1-2)[Gal(b1-4)GlcNAc(b1-6)]Man(a1-6)[GlcNAc(b1-4)][Gal(b1-4)GlcNAc(b1-2)[Gal(b1-4)GlcNAc(b1-4)]Man(a1-3)]Man(b1-4)GlcNAc(b1-4)[Fuc(a1-6)]GlcNAc
# Procedure, shortened: as §1
# [10] = target: Gal(b1-4)GlcNAc(b1-3)Gal(b1-3)GalNAc
# Procedure, shortened: as §1
# [11] = target: Gal(b1-4)GlcNAc(b1-3)Gal(b1-3)GlcNAc
# Procedure, shortened: as §1
# [12] = target: Gal(b1-4)GlcNAc(b1-3)Gal(b1-4)Glc
# Procedure, shortened: as §1
# [13] = target: Gal(b1-4)GlcNAc(b1-3)Gal(b1-4)GlcNAc
# Procedure, shortened: as §1
# [14] = target: Gal(b1-4)GlcNAc(b1-3)Gal(b1-4)GlcNAc(b1-2)Man(a1-3)[Gal(b1-4)GlcNAc(b1-3)Gal(b1-4)GlcNAc(b1-2)Man(a1-6)]Man(b1-4)GlcNAc(b1-4)GlcNAc
# Procedure, shortened: as §1
# [15] = target: Gal(b1-4)GlcNAc(b1-3)Gal(b1-4)GlcNAc(b1-2)Man(a1-3)[Gal(b1-4)GlcNAc(b1-3)Gal(b1-4)GlcNAc(b1-2)Man(a1-6)]Man(b1-4)GlcNAc(b1-4)[Fuc(a1-6)]GlcNAc
# Procedure, shortened: as §1
# [16] = target: Gal(b1-4)GlcNAc(b1-3)Gal(b1-4)GlcNAc(b1-2)[Gal(b1-4)GlcNAc(b1-3)Gal(b1-4)GlcNAc(b1-6)]Man(a1-6)[Gal(b1-4)GlcNAc(b1-3)Gal(b1-4)GlcNAc(b1-2)Man(a1-3)]Man(b1-4)GlcNAc(b1-4)GlcNAc
# Procedure, shortened: as §1
# [17] = target: Gal(b1-4)GlcNAc(b1-3)Gal(b1-4)GlcNAc(b1-2)[Gal(b1-4)GlcNAc(b1-3)Gal(b1-4)GlcNAc(b1-6)]Man(a1-6)[Gal(b1-4)GlcNAc(b1-3)Gal(b1-4)GlcNAc(b1-2)Man(a1-3)]Man(b1-4)GlcNAc(b1-4)[Fuc(a1-6)]GlcNAc
# Procedure, shortened: as §1
# [18] = target: Gal(b1-4)GlcNAc(b1-3)Gal(b1-4)GlcNAc(b1-3)Gal(b1-4)GlcNAc
# Procedure, shortened: as §1
# [19] = target: Gal(b1-4)GlcNAc(b1-3)Gal(b1-4)GlcNAc(b1-3)Gal(b1-4)GlcNAc(b1-2)Man(a1-3)[Gal(b1-4)GlcNAc(b1-3)Gal(b1-4)GlcNAc(b1-3)Gal(b1-4)GlcNAc(b1-2)Man(a1-6)]Man(b1-4)GlcNAc(b1-4)GlcNAc
# Procedure, shortened: as §1
# [20] = target: Gal(b1-4)GlcNAc(b1-3)Gal(b1-4)GlcNAc(b1-3)Gal(b1-4)GlcNAc(b1-2)Man(a1-3)[Gal(b1-4)GlcNAc(b1-3)Gal(b1-4)GlcNAc(b1-3)Gal(b1-4)GlcNAc(b1-2)Man(a1-6)]Man(b1-4)GlcNAc(b1-4)[Fuc(a1-6)]GlcNAc
# Procedure, shortened: as §1
# [21] = target: Gal(b1-4)GlcNAc(b1-3)Gal(b1-4)GlcNAc(b1-3)Gal(b1-4)GlcNAc(b1-2)[Gal(b1-4)GlcNAc(b1-3)Gal(b1-4)GlcNAc(b1-3)Gal(b1-4)GlcNAc(b1-6)]Man(a1-6)[Gal(b1-4)GlcNAc(b1-3)Gal(b1-4)GlcNAc(b1-3)Gal(b1-4)GlcNAc(b1-2)Man(a1-3)]Man(b1-4)GlcNAc(b1-4)[Fuc(a1-6)]GlcNAc
# Procedure, shortened: as §1
# [22] = target: Gal(b1-4)GlcNAc(b1-3)Gal(b1-4)GlcNAc(b1-3)Gal(b1-4)GlcNAc(b1-3)Gal(b1-4)GlcNAc(b1-2)Man(a1-3)[Gal(b1-4)GlcNAc(b1-3)Gal(b1-4)GlcNAc(b1-3)Gal(b1-4)GlcNAc(b1-3)Gal(b1-4)GlcNAc(b1-2)Man(a1-6)]Man(b1-4)GlcNAc(b1-4)GlcNAc
# Procedure, shortened: as §1
binder,measurement,setting,value
B1,glycan array binding signal (z-score),[1],0.395
same,glycan array binding signal (z-score),[2],0.319
same,glycan array binding signal (z-score),[3],-0.94
same,glycan array binding signal (z-score),[4],-1.53
same,glycan array binding signal (z-score),[5],-1.34
same,glycan array binding signal (z-score),[6],-1.05
same,glycan array binding signal (z-score),[7],0.258
same,glycan array binding signal (z-score),[8],0.138
same,glycan array binding signal (z-score),[9],-1.4
same,glycan array binding signal (z-score),[10],-0.547
same,glycan array binding signal (z-score),[11],-0.05
same,glycan array binding signal (z-score),[12],-0.707
same,glycan array binding signal (z-score),[13],-0.979
same,glycan array binding signal (z-score),[14],1.9
same,glycan array binding signal (z-score),[15],0.464
same,glycan array binding signal (z-score),[16],0.639
same,glycan array binding signal (z-score),[17],0.423
same,glycan array binding signal (z-score),[18],-0.567
same,glycan array binding signal (z-score),[19],0.655
same,glycan array binding signal (z-score),[20],-0.045
same,glycan array binding signal (z-score),[21],2.45
same,glycan array binding signal (z-score),[22],-0.009

# An excerpt of these results, bar-delimited:
binder | measurement | setting | value
B1 | glycan array binding signal (z-score) | [12] | -0.707
same | glycan array binding signal (z-score) | [13] | -0.979
